Laboratory results reported in publication PMC9892639.
No constants are given. Whether binding was seen depends on the method and setting. In cells and extracts the contact can be indirect. Some binding calls cover weakened binding; strength is not graded here.

Protein sequences, listed by entry. Tags and fused reporters are not part of them.
UniProt P51150: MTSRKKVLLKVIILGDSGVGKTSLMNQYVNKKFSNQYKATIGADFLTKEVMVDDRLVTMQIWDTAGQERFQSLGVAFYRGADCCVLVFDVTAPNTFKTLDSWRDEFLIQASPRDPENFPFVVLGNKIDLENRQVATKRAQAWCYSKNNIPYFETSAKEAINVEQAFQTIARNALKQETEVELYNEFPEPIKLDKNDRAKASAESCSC
UniProt Q8BGM7: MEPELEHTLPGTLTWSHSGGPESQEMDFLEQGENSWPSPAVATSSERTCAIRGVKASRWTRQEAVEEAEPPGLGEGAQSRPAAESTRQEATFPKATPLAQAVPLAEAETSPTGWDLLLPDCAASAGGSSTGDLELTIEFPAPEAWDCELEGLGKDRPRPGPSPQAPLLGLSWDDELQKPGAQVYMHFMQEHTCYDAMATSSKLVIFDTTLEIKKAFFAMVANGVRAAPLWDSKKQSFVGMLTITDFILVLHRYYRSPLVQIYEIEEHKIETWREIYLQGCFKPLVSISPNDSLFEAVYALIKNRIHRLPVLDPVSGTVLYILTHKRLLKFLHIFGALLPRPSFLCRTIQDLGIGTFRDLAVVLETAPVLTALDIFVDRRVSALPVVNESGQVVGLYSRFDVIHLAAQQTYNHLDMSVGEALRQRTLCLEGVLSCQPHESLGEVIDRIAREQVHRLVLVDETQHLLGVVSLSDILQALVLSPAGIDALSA

Experiments:
[1] = biological target: T1, Vam6 (also named Vps39) (mouse (endogenous in iNKT cells)) (UniProt Q8R5L3); experiment: co-IP; expanded iNKT cells lysed in NP-40 buffer with protease inhibitors; antibody (1 μg/mL) on Dynabeads protein G, lysate incubated at 4 °C overnight; immunoblot
T1 sequence: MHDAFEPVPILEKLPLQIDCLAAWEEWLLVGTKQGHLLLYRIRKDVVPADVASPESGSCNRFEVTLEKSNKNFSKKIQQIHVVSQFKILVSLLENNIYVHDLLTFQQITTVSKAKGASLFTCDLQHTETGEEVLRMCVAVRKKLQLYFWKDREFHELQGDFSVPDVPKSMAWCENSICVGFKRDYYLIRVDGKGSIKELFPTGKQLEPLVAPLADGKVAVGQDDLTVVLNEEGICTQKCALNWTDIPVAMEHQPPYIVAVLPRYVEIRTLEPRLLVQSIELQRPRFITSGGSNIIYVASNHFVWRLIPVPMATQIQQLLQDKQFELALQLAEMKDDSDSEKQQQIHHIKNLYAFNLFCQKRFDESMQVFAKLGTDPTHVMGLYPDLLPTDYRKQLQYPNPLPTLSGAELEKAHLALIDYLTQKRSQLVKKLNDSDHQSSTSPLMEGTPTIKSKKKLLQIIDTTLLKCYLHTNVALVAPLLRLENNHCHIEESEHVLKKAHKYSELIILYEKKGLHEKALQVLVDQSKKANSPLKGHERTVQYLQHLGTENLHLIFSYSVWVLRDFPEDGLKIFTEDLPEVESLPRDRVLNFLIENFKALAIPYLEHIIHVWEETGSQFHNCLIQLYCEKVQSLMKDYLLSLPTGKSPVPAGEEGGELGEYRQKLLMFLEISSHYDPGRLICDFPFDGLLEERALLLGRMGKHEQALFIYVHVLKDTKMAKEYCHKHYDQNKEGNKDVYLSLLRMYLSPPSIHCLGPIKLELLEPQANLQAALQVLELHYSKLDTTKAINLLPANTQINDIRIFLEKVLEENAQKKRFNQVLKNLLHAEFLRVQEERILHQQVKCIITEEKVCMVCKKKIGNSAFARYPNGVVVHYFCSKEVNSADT

[2] = biological target: T1, Vam6 (also named Vps39) (mouse (endogenous in iNKT cells)); experiment: proximity ligation; in situ PLA (Duolink) in fixed, permeabilised CD1d-PBS57 tetramer+ iNKT cells stimulated with anti-CD3 plus anti-CD28 or CD1d-PBS57 tetramer for 4 hours; puncta counted by confocal microscopy or imaging flow cytometry; cells from Vam6+/+, Vam6+/-, Vdac1+/+, Vdac1+/-, Vdac1-/- mice, with or without AICAR
[3] = biological target: Rab7a (mouse (endogenous in iNKT cells)) (UniProt P51150); experiment: as above
mCherry-Vam6 = biological target: T2, mCherry-Vam6 (UniProt Q8R5L3); experiment: co-IP; mCherry-Vam6 wild type and truncated mutants (ΔCT, ΔCLH, ΔCNH) restored in Vam6 knockdown NIH-3T3 cells; NP-40 lysate, antibody-coated Dynabeads protein G, 4 °C overnight; immunoblot (Supplementary Figure 3B)
T2 sequence: T1 sequence

Measured: binding

AMPKγ3 (from UniProt Q8BGM7 1-489)
binds: [1] | [2] | [3] | mCherry-Vam6

Rab7a (from UniProt P51150 1-207)
binds: [1] | [2] | mCherry-Vam6
